What was measured:
Rat [1] = assay: concentration in blood after dosing; details: 0.125 h; dosed: Benzophenone; 5 mg/kg; oral; Female; F344
Rat [2] = assay: concentration in blood after dosing; details: 0.5 h; dosed: Benzophenone; 5 mg/kg; oral; Female; F344
Rat [3] = assay: concentration in blood after dosing; details: 0.125 h; dosed: Benzophenone; 5 mg/kg; oral; Female; F344; remark: listed apart in the source
Rat [4] = assay: concentration in blood after dosing; details: 0.125 h; dosed: Benzophenone; 10 mg/kg; oral; Female; F344
Rat [5] = assay: concentration in blood after dosing; details: dosed: Benzophenone, oral, F344
Mouse [6] = assay: concentration in plasma after dosing; details: 0.125 h; dosed: Benzophenone; 30 mg/kg; oral; Male; B6C3F1
Mouse [7] = assay: concentration in plasma after dosing; details: 10 min; dosed: Benzophenone; 15 mg/kg; oral; Male; B6C3F1
Rat [8] = assay: concentration in plasma after dosing; details: dosed: Benzophenone, 10 mg/kg, oral, Female, F344
Mouse [9] = assay: concentration in plasma after dosing; details: 5 min; dosed: Benzophenone; 15 mg/kg; oral; Male; B6C3F1
Rat [10] = assay: concentration in plasma after dosing; details: dosed: Benzophenone, 10 mg/kg, oral, Male, F344
Mouse [11] = assay: concentration in plasma after dosing; details: 10 min; dosed: Benzophenone; 15 mg/kg; iv; Male; B6C3F1
Mouse [12] = assay: concentration in plasma after dosing; details: 10 min; dosed: Benzophenone; 30 mg/kg; oral; Female; B6C3F1
Mouse [13] = assay: concentration in plasma after dosing; details: 0.75 h; dosed: Benzophenone; 15 mg/kg; oral; Male; B6C3F1
Rat [14] = assay: concentration in plasma after dosing; details: dosed: Benzophenone, 5 mg/kg, oral, Male, F344
Mouse [15] = assay: concentration in plasma after dosing; details: 2.5 min; dosed: Benzophenone; 30 mg/kg; oral; Female; B6C3F1
Mouse [16] = assay: concentration in plasma after dosing; details: 0.5 h; dosed: Benzophenone; 60 mg/kg; oral; Female; B6C3F1
Rat [17] = assay: concentration in plasma after dosing; details: dosed: Benzophenone, 10 mg/kg, oral, Female, F344; remark: listed apart in the source
Mouse [18] = assay: concentration in plasma after dosing; details: 6 h; dosed: Benzophenone; 15 mg/kg; oral; Female; B6C3F1
Mouse [19] = assay: concentration in plasma after dosing; details: 2 h; dosed: Benzophenone; 15 mg/kg; oral; Male; B6C3F1
Mouse [20] = assay: concentration in plasma after dosing; details: 0.5 h; dosed: Benzophenone; 15 mg/kg; oral; Female; B6C3F1
Mouse [21] = assay: concentration in plasma after dosing; details: 2 h; dosed: Benzophenone; 60 mg/kg; oral; Female; B6C3F1
Mouse [22] = assay: concentration in plasma after dosing; details: 7 min; dosed: Benzophenone; 15 mg/kg; iv; Female; B6C3F1
Mouse [23] = assay: concentration in plasma after dosing; details: 2 h; dosed: Benzophenone; 15 mg/kg; iv; Male; B6C3F1
Mouse [24] = assay: concentration in plasma after dosing; details: 2.5 min; dosed: Benzophenone; 30 mg/kg; oral; Female; B6C3F1; remark: listed apart in the source
Mouse [25] = assay: concentration in plasma after dosing; details: 0.5 h; dosed: Benzophenone; 15 mg/kg; iv; Female; B6C3F1
Mouse [26] = assay: concentration in plasma after dosing; details: 6 h; dosed: Benzophenone; 60 mg/kg; oral; Male; B6C3F1
Mouse [27] = assay: concentration in plasma after dosing; details: 0.25 h; dosed: Benzophenone; 30 mg/kg; oral; Female; B6C3F1
Mouse [28] = assay: concentration in plasma after dosing; details: 0.125 h; dosed: Benzophenone; 15 mg/kg; oral; Female; B6C3F1
Rat [29] = assay: concentration in plasma after dosing; details: dosed: Benzophenone, 10 mg/kg, oral, Male, F344; remark: listed apart in the source
Mouse [30] = assay: concentration in plasma after dosing; details: 2.5 min; dosed: Benzophenone; 60 mg/kg; oral; Male; B6C3F1
Mouse [31] = assay: concentration in plasma after dosing; details: 2 h; dosed: Benzophenone; 15 mg/kg; oral; Male; B6C3F1; remark: listed apart in the source
Mouse [32] = assay: concentration in plasma after dosing; details: 3 h; dosed: Benzophenone; 60 mg/kg; oral; Female; B6C3F1
Mouse [33] = assay: concentration in plasma after dosing; details: 1 h; dosed: Benzophenone; 15 mg/kg; iv; Female; B6C3F1
Mouse [34] = assay: concentration in plasma after dosing; details: 0.5 h; dosed: Benzophenone; 60 mg/kg; oral; Male; B6C3F1
Rat [35] = assay: concentration in plasma after dosing; details: dosed: Benzophenone, 10 mg/kg, oral, Male, F344; remark: listed apart in the source
Mouse [36] = assay: concentration in plasma after dosing; details: 1.25 h; dosed: Benzophenone; 15 mg/kg; iv; Male; B6C3F1
Rat [37] = assay: concentration in plasma after dosing; details: 16 h; dosed: Benzophenone; 10 mg/kg; oral; Male; F344

O=C(c1ccccc1)c1ccccc1 [Benzophenone]
concentration in blood (Rat [1]): 323 ng/mL
concentration in blood (Rat [2]): 479 ng/mL
concentration in blood (Rat [3]): 444 ng/mL
concentration in blood (Rat [4]): 2130 ng/mL
concentration in blood (Rat [5]; 5 min, 5 mg/kg, Female): 597 ng/mL
concentration in blood (Rat [5]; 5 min, 5 mg/kg, Male): 212 ng/mL
concentration in blood (Rat [5]; 5 min, 10 mg/kg, Female): 1900 ng/mL
concentration in blood (Rat [5]; 5 min, 10 mg/kg, Male): 1410 ng/mL
concentration in blood (Rat [5]; 0.125 h, 5 mg/kg, Female): 689 ng/mL
concentration in blood (Rat [5]; 0.125 h, 5 mg/kg, Male): 517 ng/mL
concentration in blood (Rat [5]; 0.125 h, 10 mg/kg, Female): 1590 ng/mL
concentration in blood (Rat [5]; 0.125 h, 10 mg/kg, Male): 1030 ng/mL
concentration in blood (Rat [5]; 10 min, 5 mg/kg, Female): 647 ng/mL
concentration in blood (Rat [5]; 10 min, 5 mg/kg, Male): 486 ng/mL
concentration in blood (Rat [5]; 10 min, 10 mg/kg, Female): 1010 ng/mL
concentration in blood (Rat [5]; 10 min, 10 mg/kg, Male): 1840 ng/mL
concentration in blood (Rat [5]; 0.25 h, 5 mg/kg, Female): 843 ng/mL
concentration in blood (Rat [5]; 0.25 h, 5 mg/kg, Male): 1010 ng/mL
concentration in blood (Rat [5]; 0.25 h, 10 mg/kg, Female): 1000 ng/mL
concentration in blood (Rat [5]; 0.25 h, 10 mg/kg, Male): 804 ng/mL
concentration in blood (Rat [5]; 0.5 h, 5 mg/kg, Female): 928 ng/mL
concentration in blood (Rat [5]; 0.5 h, 5 mg/kg, Male): 427 ng/mL
concentration in blood (Rat [5]; 0.5 h, 10 mg/kg, Female): 1890 ng/mL
concentration in blood (Rat [5]; 0.5 h, 10 mg/kg, Male): 1120 ng/mL
concentration in plasma (Mouse [6]): 1590 ng/mL
concentration in plasma (Mouse [7]): 295 ng/mL
concentration in plasma (Rat [8]; 0.5 h): 474 ng/mL
concentration in plasma (Rat [8]; 10 h): 84.3 ng/mL
concentration in plasma (Mouse [9]): 1110 ng/mL
concentration in plasma (Rat [10]; 2.5 min): 63.8 ng/mL
concentration in plasma (Rat [10]; 1 h): 290 ng/mL
concentration in plasma (Mouse [11]): 4010 ng/mL
concentration in plasma (Mouse [12]): 1100 ng/mL
concentration in plasma (Mouse [13]): 198 ng/mL
concentration in plasma (Rat [14]; 0.25 h): 180 ng/mL
concentration in plasma (Rat [14]; 24 h): 20.3 ng/mL
concentration in plasma (Mouse [15]): 967 ng/mL
concentration in plasma (Mouse [16]): 1800 ng/mL
concentration in plasma (Rat [17]; 5 min): 217 ng/mL
concentration in plasma (Rat [17]; 2 h): 280 ng/mL
concentration in plasma (Mouse [18]): 12.6 ng/mL
concentration in plasma (Mouse [19]): 39.9 ng/mL
concentration in plasma (Mouse [20]): 887 ng/mL
concentration in plasma (Mouse [21]): 634 ng/mL
concentration in plasma (Mouse [22]): 3420 ng/mL
concentration in plasma (Mouse [23]): 118 ng/mL
concentration in plasma (Mouse [24]): 1340 ng/mL
concentration in plasma (Mouse [25]): 1490 ng/mL
concentration in plasma (Mouse [26]): 44 ng/mL
concentration in plasma (Mouse [27]): 635 ng/mL
concentration in plasma (Mouse [28]): 595 ng/mL
concentration in plasma (Rat [29]; 5 min): 257 ng/mL
concentration in plasma (Rat [29]; 2 h): 296 ng/mL
concentration in plasma (Mouse [30]): 1680 ng/mL
concentration in plasma (Mouse [31]): 49.9 ng/mL
concentration in plasma (Mouse [32]): 247 ng/mL
concentration in plasma (Mouse [33]): 412 ng/mL
concentration in plasma (Mouse [34]): 1610 ng/mL
concentration in plasma (Rat [35]; 5 min): 508 ng/mL
concentration in plasma (Rat [35]; 2 h): 290 ng/mL
concentration in plasma (Mouse [36]): 252 ng/mL
concentration in plasma (Rat [37]): 62.6 ng/mL

From EPA's CvTdb concentration-time database
